Assay results as given in paper PMC2809336, “Antidepressant Interactions with the NMDA NR1-1b Subunit” (Journal of Biophysics, 2008).

Molecular target: T1, NMDA NR1-1b S1S2 domain (Rattus norvegicus, UniProt P35439)
T1 construct: (His)8-TSG-LVPRG(thrombin cut site)-S1(394-544)-GT-S2(663-800); (His)8-TSG-LVPRG (His8 tag with thrombin cut site) (N); made in house; host or cells: E. coli Origami B(DE3)
Assay: Kd determination by intrinsic tryptophan fluorescence (double reciprocal, Benesi-Hildebrand plot)
Assay type: binding
Conditions: 5.29 μM NR1-1b S1S2, buffer 3 pH 6.5, 25°C, error at 95% confidence level
Experimental: Intrinsic fluorescence studies were performed in a Cary Eclipse fluorometer at 25°C. All emission scans were acquired from 300 to 400 nm upon excitation at 290 nm, with 10 nm excitation and emission slit widths in a 10 mm-path-length cell. Excitation was performed at 290 nm to minimize interference from both tyrosine residues in the NMDA NR1-1b S1S2 domain as well as the aromatic antidepressants being studied. Before data acquisition, samples were incubated for thirty seconds in the sample holder at 25°C. […] Thus, data was reported without a buffer subtraction.
Protein samples were at a final concentration of 5.29 μM in buffer 3 (10 mM MES, pH 6.5, 25 mM NaCl, 1 mM glycine). All antidepressants were solubilized in 100% methanol to the highest attainable concentrations. To account for any effects methanol had on fluorescence intensity, protein spectra with methanol were collected, allowing direct comparison between samples with and without antidepressant. Each data set consisted of at least three independent emission spectra of identically prepared samples. The data is reported with error determined at the 95% confidence level.
A double reciprocal plot was used to determine Kd, which derives from the Benesi-Hildebrand relationship, provided there is a 1 : 1 binding stoichiometry. […] When 1/ΔF is plotted against 1/[L], a linear relationship exists. The intercept on the x-axis is − K d.. […]

Kd: 240 ± 90 µM
Structure (SMILES): CN[C@H]1CC[C@@H](c2ccc(Cl)c(Cl)c2)c2ccccc21 [sertraline]
